No constants are given. Whether binding was seen depends on the method and setting. For part of these data: A result given as binding can be weak or reduced; the word gives no strength. Where a sequence is shown, tags or fusion partners need not be part of it.
Key:
[1] = biological target: Strep-RomY (Myxococcus xanthus); test: condition: only MglA preloaded with GDP, without DSP cross-linking (20 μM of each protein); pull-down; As a1, no cross-linker, but MglA-His6 preloaded with GDP, 10 mM GDP (5 mM in washes); both purified
[2] = biological target: Strep-RomY (Myxococcus xanthus); test: condition: only without DSP cross-linking (MglA preloaded with GTP; 20 μM of each protein); pull-down; Strep-RomY as bait on Strep-Tactin coated magnetic beads, no cross-linker; 20 μM of each protein, 30 min RT, buffer C (20 mM HEPES pH 8.0, 150 mM NaCl, 5 mM MgCl2); MglA-His6 preloaded with GTP, 10 mM GTP (5 mM in washes); 10 washes; Coomassie and α-His6 blot; both purified
[3] = biological target: Strep-RomY (Myxococcus xanthus); test: condition: only MglA preloaded with GDP (20 μM of each protein); pull-down + cross-linking; As a3, with DSP, but MglA-His6 preloaded with GDP, 10 mM GDP; both purified
[4] = biological target: Strep-RomY (Myxococcus xanthus); test: pull-down + cross-linking; Proteins at 20 μM each mixed 30 min RT in buffer C, DSP 200 μM for 5 min RT, quenched with 100 mM Tris pH 7.6, then Strep-Tactin coated magnetic beads with Strep-RomY as bait; MglA-His6 preloaded with GTP, 10 mM GTP; eluates run with or without 100 mM DTT; Coomassie, α-His6, α-MglA or α-MglB blots; both purified
[5] = biological target: Strep-RomY (Myxococcus xanthus); test: condition: only without DSP cross-linking (20 μM of each protein); pull-down; Strep-RomY as bait on Strep-Tactin coated magnetic beads, no cross-linker; 20 μM of each protein, 30 min RT, buffer C (20 mM HEPES pH 8.0, 150 mM NaCl, 5 mM MgCl2); MglA-His6 preloaded with GTP, 10 mM GTP (5 mM in washes); 10 washes; Coomassie and α-His6 blot; both purified

B1: MglA-His6 (protein, UniProt Q1DB04 1-195)
chain: MSFINYSSREINCKIVYYGPGLCGKTTNLQYIYNKTAAETKGKLISLSTETDRTLFFDFLPLSLGEIRGFKTRFHLYTVPGQVFYDASRKLILKGVDGVVFVADSQIERMEANMESLENLRINLAEQGYDLNKIPYVIQYNKRDLPNAVTVEEMRKALNHRNIPEYQAVAPTGVGVFDTLKAVAKLVLTELKKGG
In the case of B1, the binding [1] is reported as “no binding”, the binding [2] is reported as “no binding” and the binding [3] is reported as “no binding”. The binding [4] was “binds weakly”.

B2: His6-MglB (protein, UniProt Q1DB03 1-159)
chain: MGTQLVMYEEEFTKINAVCDRLTKDANAKVVFLVDKNGQLISSAGQTQNIDTTSLASLTAGNVAAMGGLAKLIGENEFPNQFHEGAKDSLYMTIVGSRVVLVVIFDNRTSLGLVRLRIKKASDELTKIFESLVKKTDSPGAGSPFAEISDDDIDNLFSE
B2 was tested, and the binding [5] was “no binding” and the binding [4] was “binds weakly”.

— publication PMC9481161
